No constants are given. Whether binding was seen depends on the method and setting. For some assays here: In cells and extracts the contact can be indirect. Some binding calls cover weakened binding; strength is not graded here.
Tests used:
[1] = target: eEF1A1 (eukaryotic elongation factor 1 subunit A1), MYC/DDK-tagged (human) (UniProt P68104); experiment: BLI; biotinylated eEF1 subunit (eEF1A1, eEF1B, eEF1D or eEF1G) immobilised on streptavidin biosensor; RT subunits, RT heterodimer, Gag or RTp66 mutants as analytes at 90, 30 and 10 nM (mutants at 90 nM); kinetic buffer 1 mM phosphate, 15 mM NaCl, 0.002% Tween-20, 0.1 mg/ml gelatine, 1000 rpm, OctetRed; both purified
[2] = target: eEF1A, endogenous in HEK293T cells (human (endogenous in HEK293T)) (UniProt P68104); experiment: co-IP; HEK293T lysates (S100 buffer) with FLAG- or V5-tagged HIV-1 proteins; endogenous eEF1A captured with rabbit anti-eEF1A antibody on Protein G beads, 2 h at 4°C, washed with S100 buffer plus 0.1% Triton X-100; blot with anti-FLAG or anti-V5; also lysates incubated with 1 nM Did B, 100 nM CHX or DMSO (Fig 7A)

Row | Substance | binding [1] | binding [2]
1 | recombinant 6×His RTp66, wild type (pDEST 40, BL21 AI) (from UniProt P04585 588-1147) | binds | 
2 | RTp66-FLAG (from UniProt P04585 588-1147) |  | binds
